Laboratory results from patent publication US20040214763A1 (AVENTIS PHARMA S A, published 2004).
No constants are given. Whether binding was seen depends on the method and setting. Some binding calls cover weakened binding; strength is not graded here. Sequences can lack the tags named with a protein.

The chains behind the UniProt entries cited, without tags or fusion partners. Residues count along the entry.
UniProt O60260, residues 135-290: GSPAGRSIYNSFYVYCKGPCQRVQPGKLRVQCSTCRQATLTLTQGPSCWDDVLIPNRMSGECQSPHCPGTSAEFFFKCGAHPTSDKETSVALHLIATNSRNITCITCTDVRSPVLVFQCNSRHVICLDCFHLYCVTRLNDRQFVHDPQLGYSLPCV

Molecular target: fusion protein between the central portion of parkin (amino acids 135-290) and the bacterial repressor LexA, expressed from pLex9-Parkin (135-290) (UniProt O60260)
Experiment: yeast two-hybrid, b-Gal activity assay in strain L40

- binding: binds
B1: p38 protein (product of the human gene JTV1) fused to the transactivating domain of GAL4, from library plasmid pGAD-HeLa7 (protein, not shown: large carriers)
chain: MPMYQVKPYHGGGAPLRVELPTCMYRLPNVHGRSYGPAPGAGHVQEESNLSLQALESRQDDILKRLYELKAAVDGLSKMIQTPDADLDVTNIIQADEPTTLTTNALDLNSVLGKDYGALKDIVINANPASPPLSLLVLHRLLCEHFRVLSTVHTHSSVKSVPENLLKCFGEQNKKQPRQDYQLGFTLIWKNVPKTQMKFSIQTMCPIEGEGNIARFLFSLFGQKHNAVNATLIDSWVDIAIFQLKEGSSKEKAAVFRSMNSALGKSPWLAGNELTVADVVLWSVLQQIGGCSVTVPANVQRWMRSCENLAPFNTALKLLK
